The other results are listed elsewhere or left out.
What was measured:
Assay in all cases: log2 fold change, soluble protein after heating vs DMSO (PISA); higher = thermal stabilisation; K562 lysate, 10 uM; active = over 0.2 and 3.5 SD of the protein, either way, in both replicates (recomputed)
lapatinib = compound: CS(=O)(=O)CCNCc1ccc(-c2ccc3ncnc(Nc4ccc(OCc5cccc(F)c5)c(Cl)c4)c3c2)o1 [lapatinib]
Procedure, shortened: (§1)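 K562 pellets were dounce-homogenised in PBS pH 7.4 containing 1 mM MgCl2, and the crude extract, at 1 mg/mL protein, was exposed to 10 μM compound for 30 min. Aliquots were heated for 3 min across 48°C-58°C, pooled, brought to 0.5% NP-40 at 4°C and spun at 21,000xg for 90 min, with the supernatant taken as soluble protein. TMTpro 16plex LC-MS/MS with equalised channel sums quantified that protein. Values are log-two fold changes in thermal stability relative to solvent controls, taken from duplicates.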

Chains of the proteins cited; added tags and fusions are not shown. Lines headed by an entry give the natural chain unless they say otherwise; changes in a name come on top.
UniProt Q07157: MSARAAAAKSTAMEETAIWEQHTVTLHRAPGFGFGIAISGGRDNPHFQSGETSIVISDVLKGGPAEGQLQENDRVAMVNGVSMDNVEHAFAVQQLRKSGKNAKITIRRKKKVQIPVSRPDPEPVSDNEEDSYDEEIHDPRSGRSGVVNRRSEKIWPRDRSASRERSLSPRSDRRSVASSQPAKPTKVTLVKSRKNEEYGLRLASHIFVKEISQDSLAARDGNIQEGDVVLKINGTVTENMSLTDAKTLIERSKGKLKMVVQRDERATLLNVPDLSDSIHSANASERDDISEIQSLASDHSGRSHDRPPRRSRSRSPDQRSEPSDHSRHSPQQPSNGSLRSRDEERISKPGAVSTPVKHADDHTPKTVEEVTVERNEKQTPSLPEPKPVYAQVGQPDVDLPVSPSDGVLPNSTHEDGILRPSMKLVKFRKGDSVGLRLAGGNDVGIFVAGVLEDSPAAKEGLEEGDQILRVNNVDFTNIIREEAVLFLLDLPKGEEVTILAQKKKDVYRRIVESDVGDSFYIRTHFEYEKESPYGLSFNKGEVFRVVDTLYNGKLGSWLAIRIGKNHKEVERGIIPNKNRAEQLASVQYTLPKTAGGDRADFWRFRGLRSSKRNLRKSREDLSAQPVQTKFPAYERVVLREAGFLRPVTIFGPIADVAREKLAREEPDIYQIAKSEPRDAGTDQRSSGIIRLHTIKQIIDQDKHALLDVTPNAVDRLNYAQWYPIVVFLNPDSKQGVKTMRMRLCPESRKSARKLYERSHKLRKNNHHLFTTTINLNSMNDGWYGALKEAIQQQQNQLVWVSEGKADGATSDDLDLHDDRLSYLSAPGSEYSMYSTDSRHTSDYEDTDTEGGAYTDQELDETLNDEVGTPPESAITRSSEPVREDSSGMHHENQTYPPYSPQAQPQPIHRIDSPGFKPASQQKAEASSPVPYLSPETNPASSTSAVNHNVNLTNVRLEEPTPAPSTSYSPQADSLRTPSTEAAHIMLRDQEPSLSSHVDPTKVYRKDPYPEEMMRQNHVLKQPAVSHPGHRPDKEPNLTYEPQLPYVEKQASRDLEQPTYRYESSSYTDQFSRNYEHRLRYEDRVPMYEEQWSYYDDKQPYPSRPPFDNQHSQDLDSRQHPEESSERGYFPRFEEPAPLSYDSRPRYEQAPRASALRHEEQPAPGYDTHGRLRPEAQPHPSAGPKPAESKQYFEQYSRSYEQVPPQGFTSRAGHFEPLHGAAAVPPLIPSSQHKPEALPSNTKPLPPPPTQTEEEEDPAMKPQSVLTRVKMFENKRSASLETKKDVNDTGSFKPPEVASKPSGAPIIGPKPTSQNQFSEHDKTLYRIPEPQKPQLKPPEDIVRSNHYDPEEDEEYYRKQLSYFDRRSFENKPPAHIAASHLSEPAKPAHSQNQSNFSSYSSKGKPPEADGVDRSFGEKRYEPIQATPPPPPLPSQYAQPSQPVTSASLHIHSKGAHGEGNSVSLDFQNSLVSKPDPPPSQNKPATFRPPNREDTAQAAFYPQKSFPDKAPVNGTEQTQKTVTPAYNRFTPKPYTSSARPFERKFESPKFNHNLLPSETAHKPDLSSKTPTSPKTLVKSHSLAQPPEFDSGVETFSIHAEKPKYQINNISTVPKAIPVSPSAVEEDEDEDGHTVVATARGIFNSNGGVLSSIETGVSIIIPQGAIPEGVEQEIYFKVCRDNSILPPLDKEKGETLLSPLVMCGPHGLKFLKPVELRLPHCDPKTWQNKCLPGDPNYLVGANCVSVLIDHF
UniProt Q96IK0: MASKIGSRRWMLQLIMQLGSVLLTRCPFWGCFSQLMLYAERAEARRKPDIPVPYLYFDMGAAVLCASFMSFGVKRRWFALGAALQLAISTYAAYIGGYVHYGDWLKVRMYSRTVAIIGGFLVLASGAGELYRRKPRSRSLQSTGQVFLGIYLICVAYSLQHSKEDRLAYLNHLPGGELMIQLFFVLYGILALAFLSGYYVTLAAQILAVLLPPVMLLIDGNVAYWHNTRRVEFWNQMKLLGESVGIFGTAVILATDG
UniProt Q9BSF4: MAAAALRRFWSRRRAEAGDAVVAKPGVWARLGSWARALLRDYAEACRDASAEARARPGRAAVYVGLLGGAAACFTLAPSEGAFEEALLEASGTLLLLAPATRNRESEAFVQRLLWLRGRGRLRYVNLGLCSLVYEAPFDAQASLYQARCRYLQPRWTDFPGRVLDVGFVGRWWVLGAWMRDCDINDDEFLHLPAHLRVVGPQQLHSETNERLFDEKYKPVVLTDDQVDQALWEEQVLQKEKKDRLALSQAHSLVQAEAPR
UniProt Q15363: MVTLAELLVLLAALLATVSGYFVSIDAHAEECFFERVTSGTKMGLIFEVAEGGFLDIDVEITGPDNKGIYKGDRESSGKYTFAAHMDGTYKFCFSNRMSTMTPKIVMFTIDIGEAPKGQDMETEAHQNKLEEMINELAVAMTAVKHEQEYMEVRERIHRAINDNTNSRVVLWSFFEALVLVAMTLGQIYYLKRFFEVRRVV
UniProt Q6I9Y2: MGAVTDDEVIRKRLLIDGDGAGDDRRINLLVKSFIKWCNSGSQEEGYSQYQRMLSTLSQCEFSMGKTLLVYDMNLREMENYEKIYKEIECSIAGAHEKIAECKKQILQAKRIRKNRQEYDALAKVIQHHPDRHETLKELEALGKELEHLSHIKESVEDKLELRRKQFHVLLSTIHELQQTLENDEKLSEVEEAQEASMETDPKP
UniProt P31483: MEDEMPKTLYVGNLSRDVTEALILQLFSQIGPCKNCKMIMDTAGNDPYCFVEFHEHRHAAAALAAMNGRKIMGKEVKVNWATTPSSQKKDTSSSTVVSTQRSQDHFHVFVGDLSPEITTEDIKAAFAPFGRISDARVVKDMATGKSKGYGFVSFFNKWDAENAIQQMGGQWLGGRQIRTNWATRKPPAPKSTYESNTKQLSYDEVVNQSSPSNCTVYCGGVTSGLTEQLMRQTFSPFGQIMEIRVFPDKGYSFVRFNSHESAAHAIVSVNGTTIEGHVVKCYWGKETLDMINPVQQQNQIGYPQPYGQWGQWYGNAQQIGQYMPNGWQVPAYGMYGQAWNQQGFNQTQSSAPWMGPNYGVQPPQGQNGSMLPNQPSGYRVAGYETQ
UniProt Q8IYQ7: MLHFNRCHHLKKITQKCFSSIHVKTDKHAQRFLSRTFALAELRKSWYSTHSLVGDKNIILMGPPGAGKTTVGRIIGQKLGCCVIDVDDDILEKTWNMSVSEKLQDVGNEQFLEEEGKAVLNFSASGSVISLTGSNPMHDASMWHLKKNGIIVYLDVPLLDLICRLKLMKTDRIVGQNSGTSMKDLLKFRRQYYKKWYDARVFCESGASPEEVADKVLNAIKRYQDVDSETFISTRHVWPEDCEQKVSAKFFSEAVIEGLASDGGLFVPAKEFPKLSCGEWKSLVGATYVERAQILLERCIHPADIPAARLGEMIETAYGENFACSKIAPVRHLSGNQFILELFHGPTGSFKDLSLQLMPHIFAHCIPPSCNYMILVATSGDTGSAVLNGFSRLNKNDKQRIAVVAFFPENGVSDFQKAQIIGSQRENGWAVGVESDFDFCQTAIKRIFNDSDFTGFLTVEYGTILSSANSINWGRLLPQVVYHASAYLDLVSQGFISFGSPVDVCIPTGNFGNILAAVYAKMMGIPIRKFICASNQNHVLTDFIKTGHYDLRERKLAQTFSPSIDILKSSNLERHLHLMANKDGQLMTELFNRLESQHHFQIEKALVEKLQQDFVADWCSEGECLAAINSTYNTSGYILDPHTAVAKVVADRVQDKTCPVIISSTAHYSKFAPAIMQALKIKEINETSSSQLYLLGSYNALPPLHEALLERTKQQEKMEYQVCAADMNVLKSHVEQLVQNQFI
UniProt Q03167: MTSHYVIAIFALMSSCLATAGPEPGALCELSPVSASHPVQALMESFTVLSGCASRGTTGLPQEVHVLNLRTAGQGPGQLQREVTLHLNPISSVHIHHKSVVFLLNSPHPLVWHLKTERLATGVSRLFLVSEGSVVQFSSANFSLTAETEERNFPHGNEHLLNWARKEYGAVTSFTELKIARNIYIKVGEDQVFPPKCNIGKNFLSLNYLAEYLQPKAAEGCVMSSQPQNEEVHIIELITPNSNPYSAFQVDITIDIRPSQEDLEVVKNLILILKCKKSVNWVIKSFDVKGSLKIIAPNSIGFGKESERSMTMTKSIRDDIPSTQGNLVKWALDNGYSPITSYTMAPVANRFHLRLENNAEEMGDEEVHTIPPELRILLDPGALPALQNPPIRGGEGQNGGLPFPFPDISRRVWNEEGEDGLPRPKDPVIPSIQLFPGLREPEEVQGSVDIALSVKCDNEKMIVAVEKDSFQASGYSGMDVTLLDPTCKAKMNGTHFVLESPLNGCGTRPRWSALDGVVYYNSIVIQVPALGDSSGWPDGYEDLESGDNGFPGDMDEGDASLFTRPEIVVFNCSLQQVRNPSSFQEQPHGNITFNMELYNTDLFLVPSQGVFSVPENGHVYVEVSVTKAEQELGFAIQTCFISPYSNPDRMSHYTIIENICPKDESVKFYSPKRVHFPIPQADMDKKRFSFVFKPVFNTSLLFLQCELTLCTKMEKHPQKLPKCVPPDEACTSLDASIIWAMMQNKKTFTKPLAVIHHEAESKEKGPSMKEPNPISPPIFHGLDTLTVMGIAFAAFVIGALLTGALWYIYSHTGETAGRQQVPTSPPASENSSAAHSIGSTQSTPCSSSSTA
UniProt Q96DC7: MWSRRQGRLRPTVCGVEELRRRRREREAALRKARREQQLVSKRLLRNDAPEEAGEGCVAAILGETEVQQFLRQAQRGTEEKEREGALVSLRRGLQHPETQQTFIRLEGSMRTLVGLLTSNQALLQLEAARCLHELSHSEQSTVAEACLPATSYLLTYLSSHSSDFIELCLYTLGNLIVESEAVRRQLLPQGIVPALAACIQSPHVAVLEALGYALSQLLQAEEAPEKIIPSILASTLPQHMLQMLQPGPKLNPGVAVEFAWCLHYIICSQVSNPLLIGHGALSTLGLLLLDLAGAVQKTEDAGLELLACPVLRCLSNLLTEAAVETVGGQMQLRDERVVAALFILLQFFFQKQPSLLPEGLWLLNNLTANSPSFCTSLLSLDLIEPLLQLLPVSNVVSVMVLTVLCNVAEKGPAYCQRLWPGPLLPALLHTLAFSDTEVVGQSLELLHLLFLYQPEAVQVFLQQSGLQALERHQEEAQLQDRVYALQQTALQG
UniProt Q9BVC6: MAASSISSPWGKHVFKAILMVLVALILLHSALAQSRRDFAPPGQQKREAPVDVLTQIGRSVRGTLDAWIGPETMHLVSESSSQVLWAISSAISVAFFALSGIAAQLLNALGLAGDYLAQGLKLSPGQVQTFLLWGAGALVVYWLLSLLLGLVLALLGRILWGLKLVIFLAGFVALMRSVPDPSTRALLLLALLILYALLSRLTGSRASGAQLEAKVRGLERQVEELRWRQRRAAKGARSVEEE
UniProt Q9BVK6: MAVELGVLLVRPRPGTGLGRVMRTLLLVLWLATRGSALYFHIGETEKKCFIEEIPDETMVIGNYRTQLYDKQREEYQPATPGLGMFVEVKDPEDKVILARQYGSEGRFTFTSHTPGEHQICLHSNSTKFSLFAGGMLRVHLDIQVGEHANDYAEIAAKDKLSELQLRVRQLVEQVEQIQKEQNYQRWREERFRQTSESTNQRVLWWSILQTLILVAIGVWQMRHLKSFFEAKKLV
UniProt Q9H7F4: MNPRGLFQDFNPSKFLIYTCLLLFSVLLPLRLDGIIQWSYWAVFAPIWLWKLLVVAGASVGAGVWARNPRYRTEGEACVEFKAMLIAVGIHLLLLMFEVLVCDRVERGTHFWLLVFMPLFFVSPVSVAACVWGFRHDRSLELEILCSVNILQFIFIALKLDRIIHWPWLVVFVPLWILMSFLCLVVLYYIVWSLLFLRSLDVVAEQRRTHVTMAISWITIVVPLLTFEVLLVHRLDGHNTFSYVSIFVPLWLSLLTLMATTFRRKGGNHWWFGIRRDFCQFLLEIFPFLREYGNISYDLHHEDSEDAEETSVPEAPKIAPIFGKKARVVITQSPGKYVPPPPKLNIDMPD

pictilisib = compound: CS(=O)(=O)N1CCN(Cc2cc3nc(-c4cccc5[nH]ncc45)nc(N4CCOCC4)c3s2)CC1 [pictilisib]
Procedure, shortened: as §1

crizotinib = compound: C[C@@H](Oc1cc(-c2cnn(C3CCNCC3)c2)cnc1N)c1c(Cl)ccc(F)c1Cl [crizotinib]
Procedure, shortened: as §1

[1] = compound: C[C@H](C1=CC=C(C=C1)C(=O)NC2=C3C=CNC3=NC=C2)N
Procedure, shortened: as §1

duvelisib = compound: C[C@H](Nc1ncnc2nc[nH]c12)c1cc2cccc(Cl)c2c(=O)n1-c1ccccc1 [duvelisib]
Procedure, shortened: as §1

gandotinib = compound: Cc1cc(Nc2cc(CN3CCOCC3)c3nc(C)c(Cc4ccc(Cl)cc4F)n3n2)n[nH]1 [gandotinib]
Procedure, shortened: as §1

tozasertib = compound: Cc1cc(Nc2cc(N3CCN(C)CC3)nc(Sc3ccc(NC(=O)C4CC4)cc3)n2)n[nH]1 [tozasertib]
Procedure, shortened: as §1

doramapimod = compound: Cc1ccc(-n2nc(C(C)(C)C)cc2NC(=O)Nc2ccc(OCCN3CCOCC3)c3ccccc23)cc1 [doramapimod]
Procedure, shortened: as §1

bafetinib = compound: Cc1ccc(NC(=O)c2ccc(CN3CC[C@H](N(C)C)C3)c(C(F)(F)F)c2)cc1Nc1nccc(-c2cncnc2)n1 [bafetinib]
Procedure, shortened: as §1

[2] = compound: Cc1cccc(CC(=O)N2CCc3c2ccc(-c2cn(C)c4ncnc(N)c24)c3F)n1
Procedure, shortened: as §1

nilotinib = compound: Cc1cn(-c2cc(NC(=O)c3ccc(C)c(Nc4nccc(-c5cccnc5)n4)c3)cc(C(F)(F)F)c2)cn1 [nilotinib]
Procedure, shortened: as §1

[3] = compound: Cc1nc(Nc2n[nH]c3c2CN(C(=O)N[C@H](CN(C)C)c2ccccc2)C3(C)C)c2sccc2n1
Procedure, shortened: as §1

dasatinib = compound: Cc1nc(Nc2ncc(C(=O)Nc3c(C)cccc3Cl)s2)cc(N2CCN(CCO)CC2)n1 [dasatinib]
Procedure, shortened: as §1

[4] = compound: Cc1ncc(-c2ccnc(Nc3ccc(S(C)(=O)=O)cc3)n2)n1C(C)C
Procedure, shortened: as §1

[5] = compound: Cn1cc(-c2ccc3c(c2)CCN3C(=O)Cc2cccc(C(F)(F)F)c2)c2c(N)ncnc21
Procedure, shortened: as §1

quisinostat = compound: Cn1cc(CNCC2CCN(c3ncc(C(=O)NO)cn3)CC2)c2ccccc21 [quisinostat]
Procedure, shortened: as §1

tipifarnib = compound: Cn1cncc1[C@@](N)(c1ccc(Cl)cc1)c1ccc2c(c1)c(-c1cccc(Cl)c1)cc(=O)n2C [tipifarnib]
Procedure, shortened: as §1

[6] = compound: NC(=O)Nc1cc(-c2cccc(F)c2)sc1C(=O)N[C@H]1CCCNC1
Procedure, shortened: as §1

[7] = compound: NC(=O)c1cnc(N[C@@H]2CCCC[C@@H]2N)nc1Nc1cccc(-n2nccn2)c1
Procedure, shortened: as §1

[8] = compound: NC1(c2ccc(-c3nc4ccn5c(=O)[nH]nc5c4cc3-c3ccccc3)cc2)CCC1
Procedure, shortened: as §1

Measured: log2 fold change

TJP1 isoform 2 (UniProt Q07157)
inactive: lapatinib -0.015 | pictilisib -0.028 | crizotinib 0.016 | [1] -0.065 | duvelisib -0.014 | gandotinib 0.075 | tozasertib -0.002 | doramapimod 0.014 | bafetinib -0.062 | [2] 0.111 | nilotinib -0.003 | [3] 0.004 | dasatinib 0.036 | [4] 0.006 | [5] -0.013 | quisinostat -0.011 | tipifarnib -0.005 | [6] -0.019 | [7] 0.022 | [8] -0.041

TMEM101 (UniProt Q96IK0)
inactive: lapatinib -0.048 | pictilisib -0.071 | crizotinib -0.023 | [1] 1.31 | duvelisib -0.093 | gandotinib -0.12 | tozasertib 0.06 | doramapimod 0.042 | bafetinib 0.033 | [2] 0.115 | nilotinib -0.044 | [3] 0.002 | dasatinib -0.07 | [4] -0.057 | [5] -0.134 | quisinostat 0.124 | tipifarnib -0.019 | [6] -0.035 | [7] -0.043 | [8] -0.059

THOC5 (UniProt Q13769)
inactive: lapatinib -0.036 | pictilisib -0.007 | crizotinib -0.011 | [1] -0.024 | duvelisib -0.009 | gandotinib -0.021 | tozasertib -0.01 | doramapimod 0.02 | bafetinib -0.009 | [2] 0.035 | nilotinib -0.035 | [3] 0.006 | dasatinib -0.014 | [4] -0.036 | [5] 0.029 | quisinostat -0.006 | tipifarnib -0.019 | [6] 0.021 | [7] 0.009 | [8] -0.01

THOP1 (UniProt P52888)
inactive: lapatinib -0.03 | pictilisib -0.006 | crizotinib 0.014 | [1] -0.044 | duvelisib 0.011 | gandotinib 0.028 | tozasertib -0.013 | doramapimod 0.015 | bafetinib -0.006 | [2] 0.01 | nilotinib 0.03 | [3] 0.019 | dasatinib -0.023 | [4] 0.024 | [5] 0.015 | quisinostat -0.012 | tipifarnib 0.005 | [6] -0.011 | [7] -0.013 | [8] 0.017

TIMM29 (UniProt Q9BSF4)
inactive: lapatinib -0.028 | pictilisib -0.016 | crizotinib 0.044 | [1] 0.002 | duvelisib -0.01 | gandotinib 0.042 | tozasertib -0.071 | doramapimod -0.009 | bafetinib -0.032 | [2] 0.06 | nilotinib -0.03 | [3] 0.005 | dasatinib -0.008 | [4] 0.015 | [5] -0.044 | quisinostat 0.069 | tipifarnib 0.018 | [6] -0.029 | [7] 0 | [8] -0.018

TMED2 (UniProt Q15363)
inactive: lapatinib -0.031 | pictilisib -0.034 | crizotinib -0.038 | [1] -0.033 | duvelisib -0.031 | gandotinib 0.017 | tozasertib 0.008 | doramapimod -0.009 | bafetinib -0.02 | [2] 0.013 | nilotinib 0.017 | [3] -0.02 | dasatinib 0.005 | [4] 0.002 | [5] -0.004 | quisinostat 0.095 | tipifarnib -0.034 | [6] 0.007 | [7] 0 | [8] -0.02

THOC7 (UniProt Q6I9Y2)
inactive: lapatinib -0.019 | pictilisib -0.05 | crizotinib -0.014 | [1] -0.027 | duvelisib -0.058 | gandotinib -0.001 | tozasertib 0.019 | doramapimod 0.002 | bafetinib -0.067 | [2] 0.008 | nilotinib 0.03 | [3] 0.054 | dasatinib 0.003 | [4] 0.112 | [5] 0.043 | quisinostat -0.055 | tipifarnib -0.003 | [6] -0.015 | [7] 0.007 | [8] 0.016

TIA1 (UniProt P31483)
inactive: lapatinib 0.049 | pictilisib 0.015 | crizotinib 0.042 | [1] 0.027 | duvelisib -0.051 | gandotinib 0.061 | tozasertib 0.004 | doramapimod -0.001 | bafetinib 0.011 | [2] -0.006 | nilotinib -0.229 | [3] -0.071 | dasatinib -0.012 | [4] 0.026 | [5] -0.023 | quisinostat 0.054 | tipifarnib -0.022 | [6] 0.029 | [7] 0.067 | [8] -0.086

THNSL1 (UniProt Q8IYQ7)
inactive: lapatinib 0.026 | pictilisib -0.039 | crizotinib -0.041 | [1] 0.062 | duvelisib 0.017 | gandotinib -0.051 | tozasertib 0.035 | doramapimod -0.003 | bafetinib 0.013 | [2] 0.012 | nilotinib -0.057 | [3] 0.04 | dasatinib -0.048 | [4] 0.057 | [5] 0.077 | quisinostat -0.025 | tipifarnib -0.009 | [6] -0.021 | [7] -0.005 | [8] 0.032

TGFBR3 (UniProt Q03167)
inactive: lapatinib -0.027 | pictilisib -0.043 | crizotinib -0.064 | [1] -0.055 | duvelisib 0.053 | gandotinib 0.02 | tozasertib -0.048 | doramapimod 0.047 | bafetinib -0.049 | [2] 0.064 | nilotinib -0.027 | [3] -0.011 | dasatinib 0.015 | [4] -0.01 | [5] 0.006 | quisinostat -0.006 | tipifarnib 0.024 | [6] -0.008 | [7] -0.014 | [8] 0.005

TMCO6 isoform 2 (UniProt Q96DC7)
inactive: lapatinib -0.14 | pictilisib -0.025 | crizotinib -0.149 | [1] -0.149 | duvelisib 0.049 | gandotinib -0.151 | tozasertib -0.117 | doramapimod 0.009 | bafetinib -0.06 | [2] 0.155 | nilotinib 0.061 | [3] 0.044 | dasatinib -0.064 | [4] -0.11 | [5] 0.003 | quisinostat -0.046 | tipifarnib -0.003 | [6] 0.04 | [7] 0.05 | [8] -0.045

TMEM109 (UniProt Q9BVC6)
inactive: lapatinib -0.025 | pictilisib -0.004 | crizotinib 0.032 | [1] 0.034 | duvelisib -0.016 | gandotinib 0.025 | tozasertib 0.009 | doramapimod 0.014 | bafetinib 0.011 | [2] -0.037 | nilotinib -0.016 | [3] 0.002 | dasatinib 0.01 | [4] 0.018 | [5] -0.024 | quisinostat 0.005 | tipifarnib -0.002 | [6] -0.013 | [7] -0.006 | [8] -0.033

TLE4 isoform 3 (UniProt Q04727)
inactive: lapatinib -0.01 | pictilisib -0.022 | crizotinib 0.038 | [1] -0.099 | duvelisib 0.009 | gandotinib 0.026 | tozasertib 0.01 | doramapimod 0.016 | bafetinib -0.051 | [2] -0.003 | nilotinib -0.004 | [3] 0.037 | dasatinib -0.042 | [4] -0.029 | [5] 0.03 | quisinostat 0.02 | tipifarnib 0.006 | [6] -0.045 | [7] -0.039 | [8] -0.013

TMED9 (UniProt Q9BVK6)
inactive: lapatinib -0.012 | pictilisib 0.05 | crizotinib -0.029 | [1] -0.03 | duvelisib -0.006 | gandotinib 0.003 | tozasertib 0.022 | doramapimod 0.023 | bafetinib 0.099 | [2] -0.01 | nilotinib 0.032 | [3] -0.034 | dasatinib -0.023 | [4] -0.001 | [5] 0.014 | quisinostat -0.041 | tipifarnib -0.012 | [6] 0.007 | [7] 0.032 | [8] 0.04

TMEM185B (UniProt Q9H7F4)
inactive: lapatinib -0.06 | pictilisib -0.047 | crizotinib -0.075 | [1] 0.119 | duvelisib -0.01 | gandotinib -0.056 | tozasertib 0.073 | doramapimod 0.01 | bafetinib 0.017 | [2] -0.103 | nilotinib 0.037 | [3] 0.048 | dasatinib -0.081 | [4] -0.092 | [5] 0.195 | quisinostat -0.061 | tipifarnib 0.083 | [6] 0.013 | [7] -0.046 | [8] 0.049

Reprinted at random: 2 records from the list.
THOC5 (UniProt Q13769)
inactive: lapatinib -0.036 | pictilisib -0.007 | crizotinib -0.011 | [1] -0.024 | duvelisib -0.009 | gandotinib -0.021 | tozasertib -0.01 | doramapimod 0.02 | bafetinib -0.009 | [2] 0.035 | nilotinib -0.035 | [3] 0.006 | dasatinib -0.014 | [4] -0.036 | [5] 0.029 | quisinostat -0.006 | tipifarnib -0.019 | [6] 0.021 | [7] 0.009 | [8] -0.01

TMEM101 (UniProt Q96IK0)
inactive: lapatinib -0.048 | pictilisib -0.071 | crizotinib -0.023 | [1] 1.31 | duvelisib -0.093 | gandotinib -0.12 | tozasertib 0.06 | doramapimod 0.042 | bafetinib 0.033 | [2] 0.115 | nilotinib -0.044 | [3] 0.002 | dasatinib -0.07 | [4] -0.057 | [5] -0.134 | quisinostat 0.124 | tipifarnib -0.019 | [6] -0.035 | [7] -0.043 | [8] -0.059
